Test results reported in patent US20240117030A1.
No constants are given. Whether binding was seen depends on the method and setting. Binding can be weak; no strength is given.

The chains behind the UniProt entries cited, without tags or fusion partners. Where a name states a change or a piece, a line headed by the entry shows the natural chain unless it says otherwise.
UniProt P35225: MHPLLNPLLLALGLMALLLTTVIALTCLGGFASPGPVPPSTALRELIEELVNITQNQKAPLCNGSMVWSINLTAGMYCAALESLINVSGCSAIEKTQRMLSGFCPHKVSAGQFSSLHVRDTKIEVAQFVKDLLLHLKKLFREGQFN

Assays:
[1] = biological target: human IL-13 (human) (UniProt P35225); assay: hybridoma screening, ELISA on human IL-13
[2] = biological target: human IL-13 (human) (UniProt P35225); assay: comparison of bioassays and complex structures

| binding [1] | binding [2] | Binder |
| --- | --- | --- |
| binds | – | IL13-1306 (antibody, mouse IgG1, V domains shown) VH: EVKLVESGGDLVKPGGSLKLSCAASGFTFSSYAMSWVRQSPDKRLEWVASISSGDTTYYPDSVKGRFTISRDNARNILYLQMTSLRSEDTAMYYCARLDGYYFGFPYWGQGTLVTVSA VL: DTVLTQSPASLAVSLGQRATISCKASESVDHSGSSLMHWYQQKPGQSPKLLIYRASNLESGIPARFSGSGSRTDFTLTINPVEADDVATYYCQQSNEDPWTFGGGTKLEIK |
| – | binds | IL13-1283 (antibody, human IgG1, kappa, V domains shown) VH: EVQLVESGGGLVQPGGSLRLSCAASGFTFISYAMSWVRQAPGKGLEWVASISSGGNTYYPDSVKGRFTISRDNAKNSLYLQMNSLRAEDTAVYYCARLDGYYFGFAYWGQGTLVTVSS VL: DIQMTQSPSSLSASVGDRVTITCKASESVDNYGKSLMHWYQQKPGKAPKLLIYRASNLESGVPSRFSGSGSGTDFTLTISSLQPEDFATYYCQQSNEDPWTFGGGTKVEIKR |
